Binding data for 1 molecule are collected here from paper PMC9177694.

The experiment has as its target T1, Myc-tagged-CYLD (UniProt Q9NQC7).
T1 sequence: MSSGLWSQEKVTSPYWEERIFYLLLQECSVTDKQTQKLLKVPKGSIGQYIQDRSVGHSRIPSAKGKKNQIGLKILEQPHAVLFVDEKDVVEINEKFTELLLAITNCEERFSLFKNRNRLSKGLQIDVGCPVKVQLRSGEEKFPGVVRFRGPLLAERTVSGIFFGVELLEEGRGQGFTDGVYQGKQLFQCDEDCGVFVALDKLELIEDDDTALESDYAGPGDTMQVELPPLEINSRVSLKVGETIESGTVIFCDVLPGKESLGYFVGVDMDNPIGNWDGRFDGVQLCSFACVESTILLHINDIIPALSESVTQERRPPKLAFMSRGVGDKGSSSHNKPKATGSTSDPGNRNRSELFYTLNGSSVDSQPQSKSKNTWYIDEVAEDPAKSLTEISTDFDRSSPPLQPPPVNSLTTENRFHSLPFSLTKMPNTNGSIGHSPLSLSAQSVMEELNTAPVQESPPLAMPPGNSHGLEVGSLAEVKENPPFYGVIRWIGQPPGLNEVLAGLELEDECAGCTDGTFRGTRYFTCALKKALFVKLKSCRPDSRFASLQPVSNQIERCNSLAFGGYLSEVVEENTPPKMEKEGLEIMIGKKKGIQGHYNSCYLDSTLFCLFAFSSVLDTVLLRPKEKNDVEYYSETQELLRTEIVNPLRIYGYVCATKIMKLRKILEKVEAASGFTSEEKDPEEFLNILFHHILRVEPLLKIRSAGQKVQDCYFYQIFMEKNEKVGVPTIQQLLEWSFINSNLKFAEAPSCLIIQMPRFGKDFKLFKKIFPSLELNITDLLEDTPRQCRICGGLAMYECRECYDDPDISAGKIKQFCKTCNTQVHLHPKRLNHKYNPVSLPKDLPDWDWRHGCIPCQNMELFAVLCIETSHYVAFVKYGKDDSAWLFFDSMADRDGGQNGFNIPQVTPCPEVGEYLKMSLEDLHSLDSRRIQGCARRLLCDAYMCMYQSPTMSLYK
Description: co-IP; 293T cells transfected with Bcl-3 and CYLD for 48 h; lysates immunoprecipitated with anti-Myc or anti-Flag antibody, control IgG beside; immunoblotting.

These are yes or no findings as the source states them, for the method shown. In cells and extracts the contact can be indirect. Some results given as binding are weak or reduced against the parent protein; the word gives no strength. Tags and fused reporters may be left off the sequences shown.

B1: Flag-tagged-Bcl-3 (protein, UniProt P20749 1-454)
chain: MPRCPAGAMDEGPVDLRTRPKAAGLPGAALPLRKRPLRAPSPEPAAPRGAAGLVVPLDPLRGGCDLPAVPGPPHGLARPEALYYPGALLPLYPTRAMGSPFPLVNLPTPLYPMMCPMEHPLSADIAMATRADEDGDTPLHIAVVQGNLPAVHRLVNLFQQGGRELDIYNNLRQTPLHLAVITTLPSVVRLLVTAGASPMALDRHGQTAAHLACEHRSPTCLRALLDSAAPGTLDLEARNYDGLTALHVAVNTECQETVQLLLERGADIDAVDIKSGRSPLIHAVENNSLSMVQLLLQHGANVNAQMYSGSSALHSASGRGLLPLVRTLVRSGADSSLKNCHNDTPLMVARSRRVIDILRGKATRPASTSQPDPSPDRSANTSPESSSRLSSNGLLSASPSSSPSQSPPRDPPGFPMAPPNFFLPSPSPPAFLPFAGVLRGPGRPVPPSPAPGGS
As to B1, the binding entry is “binds”.
